The target in this assay is HA-tagged full-length EBNA-2, wild-type (Epstein-Barr virus, strain B95-8 (type 1)) (UniProt P12978). The assay is described as follows: co-IP; HA-tagged EBNA-2 or mutants co-expressed with FLAG-tagged F199 in EBV negative DG75 B cells; lysis in 1% NP-40 buffer (10 mM TRIS pH 7.4, 1 mM EDTA, 150 mM NaCl, 3% glycerol); IP with HA-specific antibodies; blots with EBNA-2, FLAG and CBF1/CSL specific antibodies.

Amino acid sequences for entries named in this document (tags omitted). A change or cut given only in a name is not applied to a line headed by its entry.
UniProt P12978: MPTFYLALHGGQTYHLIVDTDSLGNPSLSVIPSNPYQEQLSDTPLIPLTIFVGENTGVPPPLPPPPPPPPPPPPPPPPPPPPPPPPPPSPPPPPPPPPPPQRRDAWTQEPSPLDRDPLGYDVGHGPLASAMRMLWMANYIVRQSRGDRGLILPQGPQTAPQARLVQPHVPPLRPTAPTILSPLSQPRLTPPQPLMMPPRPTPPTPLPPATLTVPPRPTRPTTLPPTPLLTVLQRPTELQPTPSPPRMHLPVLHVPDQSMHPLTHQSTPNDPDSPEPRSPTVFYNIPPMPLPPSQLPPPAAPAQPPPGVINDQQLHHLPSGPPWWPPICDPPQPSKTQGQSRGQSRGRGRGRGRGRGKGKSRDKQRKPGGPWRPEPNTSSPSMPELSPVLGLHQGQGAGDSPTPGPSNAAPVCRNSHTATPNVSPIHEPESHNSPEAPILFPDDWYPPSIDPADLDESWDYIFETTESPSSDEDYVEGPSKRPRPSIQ
UniProt Q06330: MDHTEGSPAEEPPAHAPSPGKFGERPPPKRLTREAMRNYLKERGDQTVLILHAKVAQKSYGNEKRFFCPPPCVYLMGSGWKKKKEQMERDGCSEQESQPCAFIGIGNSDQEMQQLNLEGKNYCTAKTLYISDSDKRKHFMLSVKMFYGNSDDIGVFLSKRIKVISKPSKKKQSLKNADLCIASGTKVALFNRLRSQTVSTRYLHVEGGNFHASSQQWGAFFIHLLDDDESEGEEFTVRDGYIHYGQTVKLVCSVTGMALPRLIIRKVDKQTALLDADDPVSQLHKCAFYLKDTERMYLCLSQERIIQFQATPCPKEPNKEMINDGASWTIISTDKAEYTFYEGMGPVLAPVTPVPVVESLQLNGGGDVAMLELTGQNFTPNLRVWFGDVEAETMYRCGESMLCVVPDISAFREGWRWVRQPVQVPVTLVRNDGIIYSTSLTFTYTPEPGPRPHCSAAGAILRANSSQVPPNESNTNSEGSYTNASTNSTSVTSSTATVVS

Drawing on publication PMC4449002, this text covers binding for 2 substances.

These are yes or no findings as the source states them, for the method shown. In cells and extracts the contact can be indirect. Some entries that bind do so weakly or less than the wild type.

On to “FLAG-tagged EBNA-2 fragment encompassing amino acid 1–199 (from UniProt P12978 1-199) (domain or fragment)”, for which the binding entry is reported as “binds”.
As to “CBF1/CSL (endogenous) (from UniProt Q06330 1-500)”, the binding entry is reported as “binds”.
